For at least one entry, the source does not settle the construct or the ends of the probe. The comparison behind a weaker result is the experiment's own reference, which may not be listed here.
Target: PARP4 BRCT-WGR-CAT (Homo sapiens) (UniProt Q9UKK3)
Test: EMSA
Conditions: very weak, at highest concentration tested; EMSA: same but 20% glycerol, 100 nM nucleic acid, room temperature 30 min, gel at 4 C in Tris-glycine; recombinant protein; protein details: N-terminal His-SUMO tag, cleaved with TEV; label: 5'-Cy3; single-stranded DNA

Chains of the proteins cited; added tags and fusions are not shown. Residues count along the entry.
UniProt Q9UKK3, 1-573: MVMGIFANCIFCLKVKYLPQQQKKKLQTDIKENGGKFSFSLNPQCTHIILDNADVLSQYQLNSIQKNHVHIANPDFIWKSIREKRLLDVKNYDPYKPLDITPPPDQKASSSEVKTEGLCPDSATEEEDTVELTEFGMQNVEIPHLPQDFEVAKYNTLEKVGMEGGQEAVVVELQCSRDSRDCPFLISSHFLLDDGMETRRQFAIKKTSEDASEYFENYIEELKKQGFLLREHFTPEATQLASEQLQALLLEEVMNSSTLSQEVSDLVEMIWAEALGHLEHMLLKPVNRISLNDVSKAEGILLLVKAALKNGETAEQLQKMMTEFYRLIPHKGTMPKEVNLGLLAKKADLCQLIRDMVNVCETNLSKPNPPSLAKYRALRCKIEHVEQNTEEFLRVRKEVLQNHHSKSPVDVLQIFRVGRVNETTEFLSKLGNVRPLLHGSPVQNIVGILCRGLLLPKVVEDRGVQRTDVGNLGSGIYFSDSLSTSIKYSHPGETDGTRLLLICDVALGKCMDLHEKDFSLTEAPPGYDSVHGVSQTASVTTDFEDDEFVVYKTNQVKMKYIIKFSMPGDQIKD

“CAGATCTACCGAATCAGTCCGACGACGCATCTGCACTACGAGGATAC [47-nt ssDNA, Cy3]”: binds more weakly.

— paper PMC10711553
